# From the supplement of paper PMC8256030
# Several values for one entry are separate records, joined by “and”; a condition that tells them apart may be missing. Identical values can stand only once. Some of the results follow. This data set is noisy: repeats of one test often differ as much as different tests do.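 HEK293T cells were given each compound shortly before transfection with a reporter in which red mCherry is followed by the SARS-CoV-2 frameshift element and then GFP in the −1 frame, so GFP appears only after frameshifting.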
# Tested on: SARS-CoV-2 -1 PRF reporter mCherry-FSE-GFP(-1)
# Experiment: mCherry (red) intensity as percent of control; higher = higher upstream reporter expression
# Conditions: 10 µM; 24 h; HEK293T
row,SMILES,mCherry
1,Cc1nn(C)c2c1C(c1ccccc1F)=NCC(=O)N2C [zolazepam],66.3%
2,CC(Cc1ccccc1)NCCC#N (stereo not drawn) [fenproporex],112%
3,C[N+]1(C)[C@@H]2CC[C@H]1C[C@@H](OC(=O)C(CO)c1ccccc1)C2 (stereo partly drawn) [atropine methonitrate],96.6%
4,CCC1(c2ccccc2)C(=O)NC(=O)N(C)C1=O (stereo not drawn) [methylphenobarbital],89.4%
5,CNCC12CCC(c3ccccc31)c1ccccc12 [benzoctamine],85%
6,Oc1ccc2[nH]cc(CCCCN3CC=C(c4ccccc4)CC3)c2c1 [roxindole],61.7%
7,NC(=O)CN1CCCC1=O [piracetam],75.2%
8,CCNC1C2CCC(C2)C1c1ccccc1 (stereo not drawn) [fencamfamin],87.4%

# Tested on: SARS-CoV-2 -1 PRF reporter mCherry-FSE-GFP(-1)
# Experiment: percent effect, decrease of GFP/mCherry ratio (-1 PRF reporter) relative to controls; higher = stronger frameshift inhibition
# Conditions: 10 µM; 24 h; HEK293T
row,SMILES,percent effect
1,C[C@]12CCC(=O)C=C1C=C[C@@H]1[C@@H]2CC[C@@]2(C)[C@H]1CC[C@@]2(O)CCC(=O)O,-4.75%
2,CN1C2CC(OC(=O)C(CO)c3ccccc3)CC1C(O)C2 (stereo not drawn),3.38%
3,COc1cc([C@@H]2c3cc4c(cc3[C@H](O)[C@H]3COC(=O)[C@H]23)OCO4)cc(OC)c1OC,-3.56%
4,CCCN1CCO[C@@H]2c3cc(O)ccc3CC[C@H]21 [naxagolide],-0.354%
5,C#Cc1cncc([C@@H]2CCCN2C)c1 [altinicline],1.38%
6,CC[C@@]1([C@@H]2O[C@@H]([C@H]3O[C@@](O)(CO)[C@H](C)C[C@@H]3C)C[C@@H]2C)CC[C@H]([C@]2(C)CC[C@]3(C[C@H](O)[C@@H](C)[C@@H]([C@@H](C)[C@@H](OC)[C@H](C)C(=O)O)O3)O2)O1,-1.92%
7,OCCN(CCO)CCO [trolamine],2.93%
8,Nc1nc(N)nc(Nc2ccc([As]3SCC(CO)S3)cc2)n1 (stereo not drawn) [melarsoprol],-19.1%
9,C1CCc2nnnn2CC1 [pentetrazol],-11.8%
10,C[C@@H]1O[C@@H](O[C@H]2C[C@@H](O)[C@]3(CO)[C@H]4[C@H](O)C[C@]5(C)[C@@H](C6=CC(=O)OC6)CC[C@]5(O)[C@@H]4CC[C@]3(O)C2)[C@H](O)[C@H](O)[C@H]1O,-14%
11,CO[C@@]12CC[C@@]3(C[C@@H]1[C@](C)(O)C(C)(C)C)[C@H]1Cc4ccc(O)c5c4[C@@]3(CCN1CC1CC1)[C@H]2O5 [Buprenex],-0.147%
12,CN1C(=O)C(O)N=C(c2ccccc2)c2cc(Cl)ccc21 (stereo not drawn) [temazepam],-5.21%
13,O=C(CCCN1CCC(n2c(=O)[nH]c3ccccc32)CC1)c1ccc(F)cc1 [benperidol],-1.46%
14,CC(C)NCC(O)c1cccc(O)c1 (stereo not drawn) [metaterol],-0.109%
15,CCCOC(=O)[C@H]1[C@@H](OC(=O)c2ccccc2)C[C@@H]2CC[C@H]1N2C,-2.18%
16,CCC(=O)O[C@H]1CC[C@H]2[C@@H]3CCC4=CC(=O)CC[C@]4(C)[C@H]3CC[C@]12C,1.75%
17,O=C(NC(=O)c1c(F)cccc1F)Nc1ccc(Cl)c(Oc2ncc(C(F)(F)F)cc2Cl)c1 [fluazuron],-3.16%
18,Nc1ncnc2c1ncn2CCOCP(=O)(O)O [adefovir],-1.11%
19,CC(C)(N)CC12CC3CC(CC(C3)C1)C2 [somantadine],-0.592%
20,CC(=O)O[C@H]1C[C@H](O[C@H]2[C@@H](O)C[C@H](O[C@H]3[C@@H](O)C[C@H](O[C@H]4CC[C@@]5(C)[C@H](CC[C@@H]6[C@@H]5C[C@@H](O)[C@]5(C)[C@@H](C7=CC(=O)OC7)CC[C@]65O)C4)O[C@@H]3C)O[C@@H]2C)O[C@H](C)[C@H]1O[C@@H]1O[C@H](CO)[C@@H](O)[C@H](O)[C@H]1O [lanatoside C],-15.9%

row,SMILES,percent effect
1,CCC1(c2cccc(O)c2)CCCCN(C)C1 (stereo not drawn) [meptazinol],0.399%
2,COc1ccc2c3c1O[C@H]1[C@@H](O)C=C[C@H]4[C@@H](C2)NCC[C@@]341 [norcodeine],-0.478%
3,CCN(CC)C(C)C(=O)c1ccccc1 (stereo not drawn) [amfepramone],0.0357%
4,CNC1(c2ccccc2Cl)CCCCC1=O (stereo not drawn) [ketamine],-3.5%
5,Cc1cccc(C(C)c2c[nH]cn2)c1C (stereo not drawn) [medetomidine],0.129%
6,C[N+](C)(C)CCCCCCCCCC[N+](C)(C)C [decamethonium bromide],0.101% and -7.81%
7,CC[C@@H](CO)NC(=O)[C@@H]1C=C2c3cccc4[nH]cc(c34)C[C@H]2N(C)C1 [methylergometrine],-5.34%
8,COC(=O)c1cncn1C(C)c1ccccc1 (stereo not drawn) [metomidate],-7.86%
9,CNC(=O)NC(O)C(Cl)(Cl)Cl (stereo not drawn) [mecloralurea],-0.517%
10,CNCC(O)c1cc(OC)c(O)c(OC)c1 (stereo not drawn) [dimetofrine],-2.67%
11,C[C@]1(O)CC[C@H]2[C@@H]3CCC4=CC(=O)CC[C@]4(C)[C@@]3(F)[C@@H](O)C[C@@]21C [fluoxymesterone],6.12%
12,N[C@@H](Cc1ccc(N(CCCl)CCCl)cc1)C(=O)O [Melphalan],-0.104%
13,Cc1nn(C)c2c1C(c1ccccc1F)=NCC(=O)N2C [zolazepam],-4.52%
14,CC(Cc1ccccc1)NCCC#N (stereo not drawn) [fenproporex],5.76%
15,C[N+]1(C)[C@@H]2CC[C@H]1C[C@@H](OC(=O)C(CO)c1ccccc1)C2 (stereo partly drawn) [atropine methonitrate],-5.98%
16,CCC1(c2ccccc2)C(=O)NC(=O)N(C)C1=O (stereo not drawn) [methylphenobarbital],-4.29%
17,CNCC12CCC(c3ccccc31)c1ccccc12 [benzoctamine],0.602%
18,Oc1ccc2[nH]cc(CCCCN3CC=C(c4ccccc4)CC3)c2c1 [roxindole],-4.92%
19,NC(=O)CN1CCCC1=O [piracetam],-2.87%
20,CCNC1C2CCC(C2)C1c1ccccc1 (stereo not drawn) [fencamfamin],-2.26%
